Values from PubChem BioAssay AID504764 (Drosophila RNAi Screening Center, 2011).
In all, the deposit lists about 22,000 reagents; shown is a random part of those that have a named target and a result. Of all reagents, 403 (1.9%) are marked active. 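Unnormalised raw counts per well; ratio z-scores behind the hit calls and whether each hit raises or lowers signal are not deposited.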 A number with no mark means an inactive call. Reagents against one gene are numbered here. A plus sign joins genes that one reagent is predicted to hit. Not given: the amount of reagent.

Purpose: 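Genes whose knock-down alters Notch-dependent transcription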 (primary screen)
Cell system: Drosophila Kc167 cells
Reagent: long dsRNA against Drosophila genes
Timing: about 5 days (4 days dsRNA, then 24 h after transfection)
Conditions: transfection of constitutively active membrane-tethered Notch lacking the extracellular domain, read 24 h later
Read-out: 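Firefly luciferase from an E(spl)m3 reporter with active Notch, plus control-promoter and uninduced reporter wells for normalisation; unnormalised counts, duplicate wells a and b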
Reading the numbers: induced reporter light, run 1, well a and induced reporter light, run 1, well b: higher = more light from the Notch target reporter with active Notch; control promoter light, run 1, well a and control promoter light, run 1, well b: higher = more light from the viral control promoter (cell number, transfection, viability); uninduced reporter light, run 1, well a: higher = more light from the Notch target reporter without active Notch
Call rule: 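Hit if the duplicate-averaged log2 ratio of induced to control-promoter light gives a plate-wise z beyond ±2, or induced to uninduced beyond ±1.8; weak-control or discordant-duplicate wells dropped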
Meaning of the calls: active = modifier hit (raised or lowered Notch signal); inactive = not a hit

| gene | reagent | induced reporter light, run 1, well a | induced reporter light, run 1, well b | control promoter light, run 1, well a | control promoter light, run 1, well b | uninduced reporter light, run 1, well a |
| --- | --- | --- | --- | --- | --- | --- |
| St2 | 1 | 1.31e5 | 1.03e5 | 1.03e5 | 72790 | 9195 |
| Xpac | 1 | 2.32e5 | 2.29e5 | 4.62e5 | 4.54e5 | 17110 |
| CG9257 | 1 | 50745 | 26260 | 22470 | 41090 | 1865 |
| CG4709 | 1 | 2.80e5 | 2.21e5 | 2.18e5 | 1.99e5 | 17175 |
| CG15576 | 1 | 1.52e5 | 1.50e5 | 2.54e5 | 2.73e5 | 12070 |
| CG13998 | 1 | 2.12e5 | 1.92e5 | 3.02e5 | 2.93e5 | 15715 |
| CG14154 | 1 | 1.36e5 | 1.35e5 | 2.07e5 | 1.89e5 | 7865 |
| twz | 1 | 35235 | 28620 | 31610 | 25380 | 3360 |
| Cht8 | 1 | 54345 | 50545 | 51850 | 64405 | 2830 |
| Rs1 | 1 | 79785 | 71565 | 68575 | 63510 | 5335 |
| CG11825 | 1 | 1.41e5 | 1.19e5 | 1.74e5 | 1.65e5 | 12155 |
| CG31493 | 1 | 1.44e5 | 1.24e5 | 81375 | 88945 | 10042 |
| CG34281 | 1 | 2.45e5 | 2.39e5 | 3.03e5 | 3.08e5 | 23415 |
| CG33310 | 1 | 1.28e5 | 1.26e5 | 1.32e5 | 1.60e5 | 10880 |
| CG13324 | 1 | 96510 | 1.19e5 | 1.18e5 | 92555 | 10380 |
| Odc1 | 1 | 1.85e5 | 1.62e5 | 2.17e5 | 2.16e5 | 20330 |
| CG5254 | 1 | 1.02e5 | 1.13e5 | 1.75e5 | 1.84e5 | 8710 |
| CG2528 | 1 | 34200 | 35580 | 31620 | 29125 | 3282 |
| Fit2 | 1 | 1.35e5 | 1.29e5 | 81195 | 79130 | 9010 |
| sand | 1 | 2.11e5 | 1.96e5 | 2.84e5 | 2.12e5 | 18895 |
| Sec6 | 1 | 86205 | 80680 | 1.59e5 | 1.30e5 | 7695 |
| Ptp61F | 1 | 1.32e5 | 1.42e5 | 2.58e5 | 2.58e5 | 8442 |
| app | 1 | 2.09e5 | 1.91e5 | 1.52e5 | 1.84e5 | 13440 |
| app | 2 | 1.51e5 | 1.25e5 | 2.08e5 | 1.71e5 | 7055 |
| app | 3 | 2.73e5 | 1.84e5 | 3.33e5 | 2.56e5 | 15795 |
| CG31460 | 1 | 1.25e5 | 1.16e5 | 73330 | 66570 | 8815 |
| CG15528 | 1 | 1.29e5 | 1.14e5 | 2.17e5 | 1.83e5 | 11235 |
| mod(mdg4) | 1 | 53375 | 46865 | 71115 | 56575 | 7530 |
| mod(mdg4) | 2 | 70605 | 68065 | 85635 | 73015 | 11655 |
| mod(mdg4) | 3 | 94485 | 90445 | 1.04e5 | 90805 | 10645 |
| mod(mdg4) | 4 | 82610 | 77500 | 1.10e5 | 97340 | 9195 |
| mod(mdg4) | 5 | 1.83e5 | 1.74e5 | 2.16e5 | 2.17e5 | 13705 |
| mod(mdg4) | 6 | 4890 | 4245 | 4860 | 5090 | 290 |
| zye | 1 | 1.08e5 | 86920 | 84285 | 73575 | 5215 |
| Unc-115b + p24-2 | 1 | 1.98e5 | 1.58e5 | 1.12e5 | 96580 | 11885 |
| Pi3K59F | 1 | 1.70e5 | 2.17e5 | 1.85e5 | 1.86e5 | 13975 |
| CG1504 | 1 | 90190 | 94635 | 90075 | 87495 | 9010 |
| CG33771 | 1 | 1.72e5 | 2.11e5 | 3.10e5 | 3.09e5 | 11900 |
| sisA | 1 | 84445 | 1.20e5 | 1.39e5 | 1.61e5 | 8092 |
| wor | 1 | 1.25e5 | 1.18e5 | 1.36e5 | 1.68e5 | 10235 |
| dve | 1 | 52395 | 43345 | 55315 | 66195 | 2560 |
| CG14246 | 1 | 1.38e5 | 1.53e5 | 2.24e5 | 2.54e5 | 13430 |
| CG30083 | 1 | 1.97e5 | 1.67e5 | 2.93e5 | 2.35e5 | 14190 |
| CG18417 | 1 | 1.75e5 | 2.16e5 | 1.95e5 | 1.50e5 | 8770 |
| ND-B8 | 1 | 1.43e5 | 1.54e5 | 1.87e5 | 1.53e5 | 9970 |
| CG12713 | 1 | 1.07e5 | 1.13e5 | 87610 | 76460 | 9175 |
| nej | 1 | 1.27e5 | 1.15e5 | 1.99e5 | 1.56e5 | 9105 |
| nej | 2 | 70185 | 86445 | 59630 | 58450 | 7955 |
| CG13840 | 1 | 60260 | 65245 | 51710 | 57245 | 8420 |
| CG15337 | 1 | 1.48e5 | 1.37e5 | 3.11e5 | 3.52e5 | 12075 |

Ordered by “control promoter light, run 1, well a” (descending): some entries from above
| gene | reagent | induced reporter light, run 1, well a | induced reporter light, run 1, well b | control promoter light, run 1, well a | control promoter light, run 1, well b | uninduced reporter light, run 1, well a |
| --- | --- | --- | --- | --- | --- | --- |
| sand | 1 | 2.11e5 | 1.96e5 | 2.84e5 | 2.12e5 | 18895 |
| Ptp61F | 1 | 1.32e5 | 1.42e5 | 2.58e5 | 2.58e5 | 8442 |
| app | 2 | 1.51e5 | 1.25e5 | 2.08e5 | 1.71e5 | 7055 |
| CG5254 | 1 | 1.02e5 | 1.13e5 | 1.75e5 | 1.84e5 | 8710 |
| Sec6 | 1 | 86205 | 80680 | 1.59e5 | 1.30e5 | 7695 |
| app | 1 | 2.09e5 | 1.91e5 | 1.52e5 | 1.84e5 | 13440 |
| Fit2 | 1 | 1.35e5 | 1.29e5 | 81195 | 79130 | 9010 |
| CG2528 | 1 | 34200 | 35580 | 31620 | 29125 | 3282 |
